In patent publication EP4537907A1:
These are yes or no findings as the source states them, for the method shown. Some binding calls cover weakened binding; strength is not graded here.

Protein sequences, listed by entry. Tags and fused reporters are not part of them. Residues count along the entry.
UniProt Q91V98, residues 18-695: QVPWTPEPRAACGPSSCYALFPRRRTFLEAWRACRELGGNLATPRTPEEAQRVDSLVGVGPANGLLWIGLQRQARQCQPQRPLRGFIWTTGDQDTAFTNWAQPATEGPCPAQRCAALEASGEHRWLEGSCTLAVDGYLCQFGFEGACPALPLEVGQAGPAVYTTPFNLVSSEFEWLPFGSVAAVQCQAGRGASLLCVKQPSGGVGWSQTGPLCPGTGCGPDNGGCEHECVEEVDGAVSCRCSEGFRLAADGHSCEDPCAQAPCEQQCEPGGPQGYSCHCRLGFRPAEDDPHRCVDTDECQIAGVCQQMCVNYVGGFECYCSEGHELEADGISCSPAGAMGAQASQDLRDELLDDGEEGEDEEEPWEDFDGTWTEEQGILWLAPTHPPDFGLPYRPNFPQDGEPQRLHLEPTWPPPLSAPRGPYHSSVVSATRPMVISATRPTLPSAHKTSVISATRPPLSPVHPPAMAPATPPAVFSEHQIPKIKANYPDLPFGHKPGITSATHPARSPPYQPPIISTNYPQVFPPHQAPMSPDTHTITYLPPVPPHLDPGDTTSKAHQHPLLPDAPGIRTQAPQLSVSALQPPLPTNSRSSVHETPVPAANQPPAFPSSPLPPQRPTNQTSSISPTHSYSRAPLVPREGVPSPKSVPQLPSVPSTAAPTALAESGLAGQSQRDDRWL

Target: recombinant mouse CD248 (internally produced) (mouse) (UniProt Q91V98)
Experiment: BLI (Octet platform, BLItz System), mAb captured via Fc on AHC biosensor

binding: binds
B1: YU1023-A02 (antibody, human IgG4, V domains shown)
VH: QVQLVESGPGLVKPSQTLSLTCTVSGGSISSGGYYWSWIRQHPGKGLEWIGYIYYSGSTYYNPSLKSRVTISVDTSKNQFSLKLSSVTAADTAVYYCARVRGRSATYFDYWGQGTTVTVSS
VL: QSVLTQPPSVSGAPGQRVTISCTGSSSNIGAGYDVRWYQQLPGTAPKLLIYANNNRPSGVPDRFSGSKSGTSASLAITGLQTEDEADYYCQSYDISLSGSLFGGGTKLTVL
